Data as given in US20250032425A1, “FIRST IN CLASS USE OF ESTROGEN RECEPTOR BETA AGONISTS IN TREATING ANGELMAN SYNDROME AND RELEVANT AUTISM SPECTRUM DISORDERS” (BROWN UNIVERSITY, priority 2023, published 2025).
At least one structure is not confirmed: it was looked up by name or label, or the drawing left a doubt.

System: UBE3A-deficient iOPCs
Assay: Ki67 (and PCNA) immunoblotting in UBE3A-knockdown iOPCs: compound screen and rescue of proliferation
Format: cell-based, human
Settings: ERβ activators of different structural classes
Protocol: Given the scarcity of knowledge regarding UBE3A function in oligodendrocyte biology, a comprehensive exploration of various cellular functions was performed, leveraging the high-throughput capabilities of the iPSC-based methodology (e.g., as described herein). We selected over 45 compounds with known targeted cellular actions (Table 1). These were chosen based on their documented effects on UBE3A, their ability to promote oligodendrocyte development and myelination, or their protective 10 roles in neural tissue. UBE3A expression was modulated using siRNA, achieving a controlled reduction that decreased OPC proliferation by approximately 50%, as evidenced by Ki67 protein levels.
iPSC Culturing and Generation of Induced Human Brain Cells Including Oligodendroglia, Neurons (IN), Astrocytes (iAs) and Microglia (iMG) The generation of iPSC-derived human oligodendrocyte precursor cells (iOPCs) was carried out according to a previously published protocol by Vulakh and Yang et al., 2023 (Characterizing the Neuron-Glial Interactions by the Co-cultures of Human iPSC-Derived Oligodendroglia and Neurons. Methods Mol. Biol. 2683), which itself was a modification of an earlier protocol by Assetta et al., 2020 (Generation of Human Neurons and Oligodendrocytes from Pluripotent Stem Cells for Modeling Neuron-Oligodendrocyte Interactions. J Vis Exp.). […]

Compound: C[C@]12CC[C@@H]3c4ccc(O)cc4CC[C@H]3[C@@H]1CC[C@@H]2O [estradiol, reference compound]
- impact of UBE3A loss on OPC proliferation (FIG. 18F, 19G): similarly mitigated the impact of UBE3A loss on OPC proliferation
